{
  "source": "patent US20170173060A1",
  "about": "“ACTIVATION OF THE ENDOGENOUS ILEAL BRAKE HORMONE PATHWAY FOR ORGAN REGENERATION AND RELATED COMPOSITIONS, METHODS OF TREATMENT, DIAGNOSTICS, AND REGULATORY SYSTEMS” (VOLANT HOLDINGS GMBH, priority 2014, published 2017)",
  "system": "patients with initial abnormal values",
  "experiment": "Rate of change of weight, HBA1c, HDL, TG and AST in RYGB, Brake, combination and control patients (FIGS. 18-22)",
  "type": "in vivo, human",
  "settings": "FIGS. 18-21 control patients",
  "source_text": "(§1) FIG. 18. Weight change in patients with RYGB in comparison with treatment with Brake alone, Brake with Metformin and Brake with Atorvastatin. Also shown are control patients given Atorvastatin alone and Metformin alone. […] Additional medications in the control patients are shown at the table on the bottom\nas §1, with “19. HBA1c” for “18. Weight”\nFIG. 20. HDL change in patients with RYGB in comparison with treatment with Brake alone, Brake with Atorvastatin. Also shown are control patients given Atorvastatin or other statins alone. […] Additional medications in the control patients are shown at the table on the bottom, note that some were taking fish oil products.\nFIG. 21. Triglyceride (TG) changes in patients with RYGB in comparison with treatment with Brake alone, Brake with Atorvastatin. Also shown are control patients given Atorvastatin (usually 10 mg doses) or other statins. […] Additional medications in the control patients are shown at the table on the bottom.\nFIG. 22. […]",
  "data": [
    {"smiles": "CC(C)c1c(C(=O)Nc2ccccc2)c(-c2ccccc2)c(-c2ccc(F)cc2)n1CC[C@@H](O)C[C@@H](O)CC(=O)O", "note": "[atorvastatin]", "values": [
      {"measurement": "effect on metabolic syndrome biomarkers when given alone", "result": "little effect"}
    ]}
  ]
}
